In patent publication US20220288002A1, “Composition comprising EPA, MA and leucine for improving muscle function” (N.V. Nutricia, priority 2019, published 2022):
For at least one compound, name, drawing or mass did not settle the structure.

Tested on: C2C12 myotubes
Test: In vitro puromycin incorporation (muscle protein synthesis) in differentiated C2C12 myotubes stimulated with insulin + leucine, Western blot
Assay type: cell-based, mouse
Details: 25 μM EPA without MA, or 25 or 50 μM MA without EPA, 16 hours; then insulin (100 nM)+Leucine (5 mM) 60 min; relative to control without stimulation and without fatty acids (indexed at 100)
Protocol: C2C12 mouse myoblasts are obtained from the American Type Culture Source Collection (no. CRL-1772). Myoblasts are cultured at 37° C. in an atmosphere of 5% CO2 in grown medium consisting of Dulbecco's modified Eagle's medium (DMEM) supplemented with 10% fetal calf serum and antibiotics. Myotube C2C12 differentiation is induced by withdrawing fetal calf serum from confluent cells and adding 10 μg/ml insulin, 5 μg/ml transferrin and 2% horse serum. 8-days-differentiated C2C12 myotubes are treated with medium containing EPA and/or MA for 16 hours. After a 4-hour starvation period, C2C12 myotubes were treated with insulin (100 nM)+Leucine (5 mM) for in total 60 min. A limitation of growing myotubes in vitro is that the cells are not able to produce insulin when administered leucine whereas in vivo the pancreas starts producing insulin when leucine is administered to a subject. Common to this model, to compensate for this limitation, the in vitro experiment requires the separate administration of insulin. […] By western-Blot analyses the level of protein synthesis was analyzed. This gives quantitative information on the incorporation of puromycin which is a measure for intracellular pathways regulating protein synthesis (Akt, mTOR) and/or a direct measure of protein synthesis. […]

CC/C=C\C/C=C\C/C=C\C/C=C\C/C=C\CCCC(=O)O [EPA, eicosapentaenoic acid]
puromycin incorporation, individual fatty acid: have an effect on puromycin incorporation
